Laboratory results: PubChem BioAssay AID504786 (Drosophila RNAi Screening Center, 2011)
The screen tested about 21,000 reagents; shown is an unselected part of those that have a named target and a result. 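Primary screen; positive scores mean lost reporter signal, so the sign may be inverted from the usual convention.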 A plus sign joins genes that one reagent is predicted to hit. Further read-outs or replicates are left out here.

- Purpose: 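Fly genes required for HIF-dependent transcription when hypoxia is mimicked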 (primary screen)
- Cell system: Drosophila S2 cells with a stable HIF luciferase reporter
- Reagents: long dsRNA against Drosophila genes, about 0.2 µg dsRNA per well of a 384-well plate
- Time to read-out: three days of knock-down, then 20 h of DFO before reading
- Conditions: desferrioxamine (DFO) at 100 µM, an iron chelator that mimics hypoxia, for 20 h
- Read-out: 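Firefly luciferase driven by the mouse ldh-a hypoxia-response element, measured after 20 h of 100 µM DFO; z-scores per plate, higher means more signal lost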
- Scale: z-score: higher = stronger loss of HIF reporter signal

no.	target gene	amplicon	z-score, replicate 1	z-score, replicate 2	z-score, replicate 3
1	hoe1	DRSC00265	-0.3	-0.2	
2	hoe1	DRSC00333	-0.4	-0.1	
3	hoe1	DRSC00353	-0.5	-0.8	
4	CG3301	DRSC15471	-0.2	-0.2	
5	Oseg5	DRSC03209	-0.2	-0.6	
6	CG3008	DRSC00560	-0.2	-0.1	
7	Vinc	DRSC18728	-0.2	-0.3	
8	CG10738	DRSC09792	-0.4	-0.3	
9	Pcyt1	DRSC08157	0.1	0.2	
10	CG9281	DRSC20179	-0.3	-0.4	
11	CG5355	DRSC02844	-0.1	0.2	
12	Gr66a	DRSC10783	-0.2	-0.3	
13	Pitslre	DRSC11874	-0.2	1.4	
14	TP53INP	DRSC08178	-0.3	-0.3	0
15	CG34181	DRSC01071	-0.1	0.4	
16	CG7168	DRSC16208	-0.2	-0.4	
17	CG12111	DRSC17808	-0.3	-0.6	
18	CG11106	DRSC19381	-0.1	-0.5	
19	Hpr1	DRSC12296	-0.4	0.3	
20	Cnx14D	DRSC20214	-0.1	-0.3	
21	mRpL37	DRSC16062	1.1	0.9	
22	eIF4E6	DRSC14853	-0.2	-0.4	
23	CG14687	DRSC14910	-0.4	-0.8	
24	CG1888	DRSC06797	-0.3	-0.6	
25	cGlr1	DRSC06270	-0.1	0.1	
26	CG12605	DRSC08286	-0.2	0.4	
27	CG13958 (retired record)	DRSC02300	0.1	0.4	
28	CG31953 (retired record) + gkt	DRSC00709	-0.3	-0.8	
29	Ir67a	DRSC09897	-0.3	-0.5	
30	CG9519	DRSC20195	-0.4	-0.2	
31	CG33914	DRSC05033	-0.1	-0.2	
32	CG14100	DRSC10101	-0.1	0	
33	snky	DRSC09838	-0.2	-0.4	
34	CG42527 (retired record) + Hr4	DRSC18495	-0.4	-0.6	1.8
35	Sf3b5	DRSC14460	8	5.8	
36	Pop4	DRSC10955	-0.1	-0.1	
37	Gad1	DRSC08661	-0.1	1.2	
38	CG31368	DRSC14949	-0.3	-0.1	
39	CG31368	DRSC14951	-0.4	-0.7	
40	Gcna	DRSC18553	-0.3	-0.3	
41	RYBP	DRSC04117	-0.1	0	
42	Nup358	DRSC14410	-0.1	-0.1	
43	Cyp316a1	DRSC11130	-0.3	0.5	
44	CG14937	DRSC02419	0.1	-0.3	
45	CG12857	DRSC06197	-0.3	-0.6	
46	cav	DRSC15995	-0.3	-0.5	
47	Ccdc58 + CG34116	DRSC10105	-0.3	-0.2	
48	Skp2 + CG1103	DRSC12160	-0.3	-0.3	
49	CG17580	DRSC06683	-0.3	-0.5	
50	CG34382	DRSC08999	-0.5	0.1	
51	CG34382	DRSC10166	-0.2	-0.1	
52	CG34382	DRSC10167	-0.3	-0.3	
53	CG9215	DRSC20171	-0.2	-1	
54	CG1785	DRSC18139	-0.4	0.7	
55	spz	DRSC17065	-0.3	0	
56	ND-B22	DRSC03193	-0.3	0.3	
57	dsd	DRSC13829	0	0	
58	dsd	DRSC15850	-0.3	-0.5	
59	CG11018	DRSC06024	-0.3	-0.4	
60	Tollo	DRSC11305	-0.4	-0.1	
61	asrij	DRSC04175	1.3	0.4	
62	CG9775	DRSC12330	-0.3	-0.4	
63	lcs	DRSC20580	-0.3	-0.7	
64	CG16854	DRSC02536	-0.4	-0.5	
65	CG4301	DRSC19886	-0.3	-0.6	
66	CG13245	DRSC02243	-0.3	-0.4	
67	CG32486	DRSC08413	-0.4	-0.3	
68	CG32486	DRSC08488	-0.4	-0.2	
69	CG5592	DRSC10524	-0.3	-0.4	
70	CG9760	DRSC11101	-0.2	-0.5	
71	CG14860	DRSC14983	-0.4	-0.6	
72	Dh44	DRSC12747	0.1	0.5	
73	Dh44	DRSC16409	-0.3	-0.6	
74	CG13005	DRSC19524	0	-0.4	
75	Phyhd1	DRSC14911	-0.5	-0.7	
76	CCAP	DRSC15674	-0.1	0.8	
77	ND-51L2	DRSC07080	-0.3	-0.3	
78	GluRIB + CG42509 (retired record)	DRSC10258	-0.3	0	
79	GluRIB + CG42509 (retired record)	DRSC11177	-0.2	0.4	
80	Vti1b	DRSC16283	-0.2	-0.2	
81	Vti1b	DRSC16284	-0.4	0.1	
82	eIF4H2	DRSC14582	-0.3	-0.7	
83	Trp1	DRSC03465	-0.2	-0.2	

13 of these entries, set out differently:
{"target gene": "CG34382", "amplicon": "DRSC08999", "z-score, replicate 1": -0.5, "z-score, replicate 2": 0.1}
{"target gene": "CG34382", "amplicon": "DRSC10166", "z-score, replicate 1": -0.2, "z-score, replicate 2": -0.1}
{"target gene": "CG34382", "amplicon": "DRSC10167", "z-score, replicate 1": -0.3, "z-score, replicate 2": -0.3}
{"target gene": "CG9215", "amplicon": "DRSC20171", "z-score, replicate 1": -0.2, "z-score, replicate 2": -1}
{"target gene": "CG1785", "amplicon": "DRSC18139", "z-score, replicate 1": -0.4, "z-score, replicate 2": 0.7}
{"target gene": "spz", "amplicon": "DRSC17065", "z-score, replicate 1": -0.3, "z-score, replicate 2": 0}
{"target gene": "ND-B22", "amplicon": "DRSC03193", "z-score, replicate 1": -0.3, "z-score, replicate 2": 0.3}
{"target gene": "dsd", "amplicon": "DRSC13829", "z-score, replicate 1": 0, "z-score, replicate 2": 0}
{"target gene": "dsd", "amplicon": "DRSC15850", "z-score, replicate 1": -0.3, "z-score, replicate 2": -0.5}
{"target gene": "CG11018", "amplicon": "DRSC06024", "z-score, replicate 1": -0.3, "z-score, replicate 2": -0.4}
{"target gene": "Tollo", "amplicon": "DRSC11305", "z-score, replicate 1": -0.4, "z-score, replicate 2": -0.1}
{"target gene": "asrij", "amplicon": "DRSC04175", "z-score, replicate 1": 1.3, "z-score, replicate 2": 0.4}
{"target gene": "CG9775", "amplicon": "DRSC12330", "z-score, replicate 1": -0.3, "z-score, replicate 2": -0.4}
